Measurements reported in patent publication US20240043551A1 (ADLAI NORTYE BIOPHARMA, published 2024).
Substitutions are numbered along the chain they refer to. No constants are given. Whether binding was seen depends on the method and setting. Some results given as binding are weak or reduced against the parent protein; the word gives no strength.

Protein sequences, listed by entry. Tags and fused reporters are not part of them. Lines headed by an entry give the natural chain unless they say otherwise; changes in a name come on top. Chains listed by the source or under a name are the forms on record and can include a tag or linker. Residues count along the entry.
UniProt P20333: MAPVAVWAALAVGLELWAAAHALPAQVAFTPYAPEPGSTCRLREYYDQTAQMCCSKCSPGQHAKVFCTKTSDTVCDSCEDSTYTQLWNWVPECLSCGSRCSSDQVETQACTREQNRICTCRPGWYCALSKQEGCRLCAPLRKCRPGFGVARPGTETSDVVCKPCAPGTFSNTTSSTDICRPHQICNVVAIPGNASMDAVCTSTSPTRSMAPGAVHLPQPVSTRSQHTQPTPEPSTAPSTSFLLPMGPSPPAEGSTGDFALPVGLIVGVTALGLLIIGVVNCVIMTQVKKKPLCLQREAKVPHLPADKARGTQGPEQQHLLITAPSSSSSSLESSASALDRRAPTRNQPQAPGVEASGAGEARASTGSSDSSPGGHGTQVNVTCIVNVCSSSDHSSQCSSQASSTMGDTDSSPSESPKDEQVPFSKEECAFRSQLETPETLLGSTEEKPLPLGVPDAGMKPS
Full length human TNFR2 on Jurkat E6-1 cells (Clone NO.3): residues 23-461 of P20333
His tagged human TNFR2 ECD (Acro Biosystem, TN2-H5227): residues 23-257 of P20333

B1: TN36-2 (antibody, human IgG1, V domains shown)
VH: EVQLVESGGGLIQPGGSLRLSCAASGFSLSSSAVSWVRQAPGKGLEWIGAIGSGGTSYYSNWAKSRFTISRDNSKNTLYLQMNSLRAEDTAVYYCARDPNSSDYPYGAYGMGLWGRGTLVTVSS
VL: DIQMTQSPSSLSASVGDRVTITCQVSQSISSYLSWYQQKPGKAPKLLIYYASTLASGVPSRFSGSGSGTDFTLTISSLQPEDFATYYCQQGYITSNVGNAFGGGTKVEIK
notes: Humanized; also called AL2/AL8
B2: TN36-3 (antibody, human IgG1, V domains shown)
VH: B1 VH
VL: B1 VL with A43P
notes: Humanized; also called AL2/AL9
B3: TN36-4 (antibody, human IgG1, V domains shown)
VH: B1 VH
VL: B1 VL with S10F
notes: Humanized; also called AL2/AL10
B4: TN36-5 (antibody, human IgG1, V domains shown)
VH: B1 VH
VL: B1 VL with M4L, S10F, D70E
notes: Humanized; also called AL2/AL11
B5: TN36-6 (antibody, human IgG1, V domains shown)
VH: B1 VH with Y94F
VL: B1 VL
notes: Humanized; also called AL3/AL8
B6: TN36-7 (antibody, human IgG1, V domains shown)
VH: B1 VH with Y94F
VL: B1 VL with A43P
notes: Humanized; also called AL3/AL9
B7: TN36-8 (antibody, human IgG1, V domains shown)
VH: B1 VH with Y94F
VL: B1 VL with S10F
notes: Humanized; also called AL3/AL10
B8: TN36-9 (antibody, human IgG1, V domains shown)
VH: B1 VH with Y94F
VL: B1 VL with M4L, S10F, D70E
notes: Humanized; also called AL3/AL11
B9: TN36-10 (antibody, V domains shown)
VH: B1 VH with N73T, L78V, Y94F, R116P
VL: B1 VL
notes: Humanized; also called AL4/AL8
B10: TN36-11 (antibody, human IgG1, V domains shown)
VH: B1 VH with N73T, L78V, Y94F, R116P
VL: B1 VL with A43P
notes: Humanized; also called AL4/AL9
B11: TN36-12 (antibody, human IgG1, V domains shown)
VH: B1 VH with N73T, L78V, Y94F, R116P
VL: B1 VL with S10F
notes: Humanized; also called AL4/AL10
B12: TN36-13 (antibody, human IgG1, V domains shown)
VH: B1 VH with N73T, L78V, Y94F, R116P
VL: B1 VL with M4L, S10F, D70E
notes: Humanized; also called AL4/AL11
B13: TN36-14 (antibody, human IgG1, V domains shown)
VH: B1 VH with I12V, R116Q
VL: B1 VL
notes: Humanized; also called AL5/AL8
B14: TN36-15 (antibody, human IgG1, V domains shown)
VH: B1 VH with I12V, R116Q
VL: B1 VL with A43P
notes: Humanized; also called AL5/AL9
B15: TN36-16 (antibody, human IgG1, V domains shown)
VH: B1 VH with I12V, R116Q
VL: B1 VL with S10F
notes: Humanized; also called AL5/AL10
B16: TN36-17 (antibody, human IgG1, V domains shown)
VH: B1 VH with I12V, R116Q
VL: B1 VL with M4L, S10F, D70E
notes: Humanized; also called AL5/AL11
B17: TN36-18 (antibody, human IgG1, V domains shown)
VH: B1 VH with I12V, R116P
VL: B1 VL
notes: Humanized; also called AL6/AL8
B18: TN36-19 (antibody, human IgG1, V domains shown)
VH: B1 VH with I12V, R116P
VL: B1 VL with A43P
notes: Humanized; also called AL6/AL9
B19: TN36-20 (antibody, human IgG1, V domains shown)
VH: B1 VH with I12V, R116P
VL: B1 VL with S10F
notes: Humanized; also called AL6/AL10
B20: TN36-21 (antibody, human IgG1, V domains shown)
VH: B1 VH with I12V, R116P
VL: B1 VL with M4L, S10F, D70E
notes: Humanized; also called AL6/AL11

Legend:
[1] = target: Cynomolgus TNFR2 (Sino Biological, 90102-CO8H) (cynomolgus); assay: ELISA, receptor coated at 1 µg/mL, antibody titrated from 5 µg/mL
[2] = target: His tagged human TNFR2 ECD (Acro Biosystem, TN2-H5227) (human) (UniProt P20333); assay: ELISA, TNFR2-His coated, antibody 0.006 and 0.06 µg/well
[3] = target: His tagged human TNFR2 ECD (Acro Biosystem, TN2-H5227) (human) (UniProt P20333); assay: ELISA, receptor coated at 1 µg/mL, antibody titrated from 5 µg/mL
[4] = target: Full length human TNFR2 on Jurkat E6-1 cells (Clone NO.3) (human) (UniProt P20333); assay: FACS on human TNFR2+ Jurkat Clone No.3, biotinylated antibody with streptavidin-PE

Row | Binder | binding [1] | binding [2] | binding [3] | binding [4]
1 | B1 | binds |  |  | 
2 | B2 | binds |  |  | 
3 | B3 | binds |  |  | 
4 | B4 | binds |  |  | 
5 | B5 | binds |  |  | 
6 | B6 | binds |  |  | 
7 | B7 | binds |  |  | 
8 | B8 | binds |  |  | 
9 | B9 | binds | binds | binds | binds
10 | B10 | binds | binds | binds | binds
11 | B11 | binds | binds | binds | binds
12 | B12 | binds | binds | binds | binds
13 | B13 | binds | binds | binds | binds
14 | B14 | binds | binds | binds | binds
15 | B15 | binds | binds | binds | binds
16 | B16 | binds | binds | binds | binds
17 | B17 | binds | binds | binds | binds
18 | B18 | binds | binds | binds | binds
19 | B19 | binds | binds | binds | binds
20 | B20 | binds | binds | binds | binds
